One data set has as its target PSD-95 (Mus musculus, UniProt Q62108). The conditions noted are these: mouse spinal cord lysate, biotinylated peptide on streptavidin beads.
In another data set the target is nNOS (Mus musculus, UniProt Q9Z0J4). The conditions noted are these: mouse spinal cord lysate, biotinylated peptide on streptavidin beads.
For a further data set, the target named is PICK1 (Mus musculus, UniProt Q62083). Particulars: mouse spinal cord lysate, biotinylated peptide on streptavidin beads.
The nature of data set [1]: Size exclusion chromatography of peptides (oligomeric state). Particulars: 400 μM peptide, Example 3. It is filed as physicochemical.

By UniProt entry, the sequences of proteins in these tests, tags left out.
UniProt Q62108, whole entry: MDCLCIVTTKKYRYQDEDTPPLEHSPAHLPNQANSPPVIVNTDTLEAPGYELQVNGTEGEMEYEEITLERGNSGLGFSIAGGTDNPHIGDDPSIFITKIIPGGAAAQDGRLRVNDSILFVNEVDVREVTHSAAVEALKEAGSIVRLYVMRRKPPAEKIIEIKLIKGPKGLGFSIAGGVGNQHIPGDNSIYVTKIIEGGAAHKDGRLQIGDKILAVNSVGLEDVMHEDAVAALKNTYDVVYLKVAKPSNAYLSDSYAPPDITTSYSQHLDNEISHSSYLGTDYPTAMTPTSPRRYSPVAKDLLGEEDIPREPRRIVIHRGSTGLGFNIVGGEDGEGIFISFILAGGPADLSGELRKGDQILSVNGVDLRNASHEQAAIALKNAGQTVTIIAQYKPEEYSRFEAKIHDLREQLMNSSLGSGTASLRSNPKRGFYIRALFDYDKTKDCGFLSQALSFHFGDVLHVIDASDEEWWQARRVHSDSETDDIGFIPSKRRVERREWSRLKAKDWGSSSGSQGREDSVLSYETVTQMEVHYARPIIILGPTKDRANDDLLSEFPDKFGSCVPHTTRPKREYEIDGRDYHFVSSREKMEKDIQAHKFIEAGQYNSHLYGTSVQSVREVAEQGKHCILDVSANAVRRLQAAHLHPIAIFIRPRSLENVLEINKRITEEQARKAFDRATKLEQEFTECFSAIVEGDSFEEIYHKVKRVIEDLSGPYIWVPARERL
UniProt Q9Z0J4, whole entry: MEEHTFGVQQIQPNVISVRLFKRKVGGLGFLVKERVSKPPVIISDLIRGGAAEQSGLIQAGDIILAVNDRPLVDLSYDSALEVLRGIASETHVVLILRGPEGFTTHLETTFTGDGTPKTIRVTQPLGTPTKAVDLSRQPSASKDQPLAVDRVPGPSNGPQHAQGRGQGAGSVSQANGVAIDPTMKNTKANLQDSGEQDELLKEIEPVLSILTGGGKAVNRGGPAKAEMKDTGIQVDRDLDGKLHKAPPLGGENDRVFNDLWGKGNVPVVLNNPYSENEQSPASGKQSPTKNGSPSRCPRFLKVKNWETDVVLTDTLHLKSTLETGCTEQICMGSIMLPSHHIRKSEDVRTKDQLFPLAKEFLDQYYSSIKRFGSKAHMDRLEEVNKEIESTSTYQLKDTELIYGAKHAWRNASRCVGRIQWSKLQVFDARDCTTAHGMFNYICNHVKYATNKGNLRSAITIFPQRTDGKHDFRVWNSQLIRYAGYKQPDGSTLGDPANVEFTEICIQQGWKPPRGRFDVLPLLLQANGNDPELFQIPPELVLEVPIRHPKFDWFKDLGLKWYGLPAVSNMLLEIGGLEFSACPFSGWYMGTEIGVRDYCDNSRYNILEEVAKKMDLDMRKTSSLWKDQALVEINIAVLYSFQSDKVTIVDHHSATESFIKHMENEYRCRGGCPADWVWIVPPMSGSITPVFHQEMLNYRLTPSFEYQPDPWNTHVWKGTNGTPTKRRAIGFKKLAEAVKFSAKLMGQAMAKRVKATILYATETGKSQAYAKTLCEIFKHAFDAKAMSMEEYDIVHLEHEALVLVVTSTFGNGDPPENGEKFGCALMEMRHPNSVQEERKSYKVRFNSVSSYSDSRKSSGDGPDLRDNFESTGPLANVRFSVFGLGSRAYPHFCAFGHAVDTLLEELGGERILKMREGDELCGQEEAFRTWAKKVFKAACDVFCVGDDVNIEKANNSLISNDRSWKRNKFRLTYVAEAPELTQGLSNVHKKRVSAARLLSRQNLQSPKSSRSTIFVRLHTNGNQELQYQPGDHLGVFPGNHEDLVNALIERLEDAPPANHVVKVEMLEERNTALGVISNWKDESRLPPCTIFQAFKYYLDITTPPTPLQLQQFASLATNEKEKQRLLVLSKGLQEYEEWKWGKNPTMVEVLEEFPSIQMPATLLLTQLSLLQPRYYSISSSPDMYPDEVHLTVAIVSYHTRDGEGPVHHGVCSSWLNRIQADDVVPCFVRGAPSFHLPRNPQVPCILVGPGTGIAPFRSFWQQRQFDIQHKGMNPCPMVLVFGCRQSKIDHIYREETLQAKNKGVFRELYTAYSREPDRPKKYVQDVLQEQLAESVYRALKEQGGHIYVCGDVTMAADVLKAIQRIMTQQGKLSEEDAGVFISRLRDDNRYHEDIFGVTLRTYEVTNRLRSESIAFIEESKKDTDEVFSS
UniProt Q62083, whole entry: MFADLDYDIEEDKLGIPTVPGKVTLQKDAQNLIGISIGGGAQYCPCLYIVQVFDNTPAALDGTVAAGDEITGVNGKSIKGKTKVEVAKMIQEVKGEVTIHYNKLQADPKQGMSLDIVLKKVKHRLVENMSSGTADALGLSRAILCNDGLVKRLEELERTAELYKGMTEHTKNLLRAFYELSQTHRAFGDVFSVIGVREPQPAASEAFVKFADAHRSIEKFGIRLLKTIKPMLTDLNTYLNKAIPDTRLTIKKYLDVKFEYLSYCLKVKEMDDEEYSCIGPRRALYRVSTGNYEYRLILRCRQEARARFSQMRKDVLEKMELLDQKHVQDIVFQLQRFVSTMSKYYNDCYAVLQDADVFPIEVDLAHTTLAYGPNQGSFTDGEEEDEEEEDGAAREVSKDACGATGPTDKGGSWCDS

On to “RMKQLEDKVEELLSKNYHLENEVARLKKLVGGGGSGGGGS [GCN4p1-GS4-GS4]”, for which the “target engagement with PSD-95 protein (pull-down)” value on PSD-95 was “does not bind PSD-95 protein”. For the same sequence, at nNOS, the “target engagement with nNOS protein (pull-down)” value is reported as “does not bind nNOS protein”. At PICK1, the “target engagement with PICK1 protein (pull-down)” value is “does not bind PICK1”.

For “RMKQLEDKVEELLSKQYHLENEVARLKKLVGGGGSRRTTPV (GCN4p1(NQ)-GS4-RRTTPV)”, in data set [1], the “oligomeric state in solution (SEC)” value was “trimeric constructs”.

The values are drawn from patent US20230348540A1, “Viral multimeric peptide constructs for targeting PDZ domains” (University of Copenhagen, priority 2020, published 2023).
